Reference: PubChem BioAssay AID504786 (Drosophila RNAi Screening Center, 2011)
Screen: 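Fly genes required for HIF-dependent transcription when hypoxia is mimicked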 (primary screen). System: Drosophila S2 cells with a stable HIF luciferase reporter. Reagent: long dsRNA against Drosophila genes, about 0.2 µg dsRNA per well of a 384-well plate. Time to read-out: three days of knock-down, then 20 h of DFO before reading. Treatment: desferrioxamine (DFO) at 100 µM, an iron chelator that mimics hypoxia, for 20 h. Read-out: 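HIF reporter luminescence in cells given 100 µM DFO for 20 h, using the mouse ldh-a hypoxia-response element, scored as per-plate z-scores; higher means greater loss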. Scale: z-score: higher = stronger loss of HIF reporter signal.
The deposit covers about 21,000 reagents; below is a random part of those with a known target gene and a result. 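Primary screen; positive scores mean lost reporter signal, so the sign may be inverted from the usual convention.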 Names joined by + are all predicted targets of the reagent. No sequences are given here.

gene	dsRNA	z-score, replicate 1	z-score, replicate 2	z-score, replicate 3	z-score, replicate 4
Oatp58Da	DRSC04365	-0.1	-0.3		
wdb	DRSC14163	0	0.1		
CG4789	DRSC19918	-0.3	-0.7		
danr	DRSC14651	-0.4	-0.4		
OXA1L	DRSC09672	0.2	0.5		
Or85b	DRSC16765	-0.2	0.3		
CG12680	DRSC17871	-0.3	-0.1		
CG13793	DRSC02297	-0.3	-0.2		
CG12290	DRSC14497	-0.3	-0.4		
Adk1	DRSC15514	-0.3	0.1		
CG42544	DRSC12451	-0.6	-0.9		
Mp20	DRSC07474	-0.1	-0.4		
ATPsynCF6	DRSC14092	1.5	-0.1		
dop	DRSC10655	-0.2	-0.5		
Arl1	DRSC09667	-0.2	-0.2		
Fbp1	DRSC11166	0.3	0.4		
crim	DRSC10573	-0.3	-0.4		
amos	DRSC03484	-0.3	-0.4		
Adgf-C	DRSC16473	-0.2	-0.3		
CG4462	DRSC15583	-0.2	-1		
CG15435	DRSC00450	-0.2	0.4		
CG12605	DRSC08286	-0.2	0.4		
SLIRP2	DRSC16363	-0.3	-0.6		
CG1544	DRSC15036	-0.2	-0.1		
dsx	DRSC12649	-0.2	-0.8		
dsx	DRSC16934	-0.3	0	0.4	-0.4
CG10616	DRSC09750	-0.3	-0.4		
ppk20	DRSC16260	-0.4	-0.3		
SIFaR	DRSC13467	-0.5	-0.3		
SIFaR	DRSC14266	0.5	0		
CG14370	DRSC14832	-0.2	0.2		
CG33301	DRSC02778	-0.1	-0.3		
CG3225	DRSC00578	-0.3	-0.5		
tut	DRSC08909	-0.1	0.6		
Hexo2	DRSC18671	-0.3	-0.2		
Polr3B	DRSC07536	0.1	0.9		
CG10845	DRSC14272	-0.2	-0.7		
Rpp25	DRSC05002	0	-0.2		
D19B	DRSC11134	0.3	-0.1		
prtp	DRSC19804	-0.5	-0.5	-0.1	-0.5
Cyp4e2	DRSC07371	-0.3	-0.6		
CG3907	DRSC04432	-0.1	-0.3		
RabX6	DRSC08223	-0.1	-0.1		
Gr32a	DRSC02400	-0.4	-0.4		
CG33465	DRSC05587	0	-0.2		
CDK2AP1	DRSC19800	0.1	0		
Nup93-2	DRSC16221	0	-0.2		
CG12490	DRSC04123	-0.3	-0.3		
mura	DRSC16483	2.5	0.5		
mura	DRSC16484	4.9	4.2		
ATPsynD	DRSC14093	0.1	1.2		
CG10469	DRSC09729	0.1	-0.1		
CG3847	DRSC17444	-0.2	-0.2		
CG3847	DRSC18327	1.4	0		
CG13036 (retired record)	DRSC09916	-0.2	-0.5		
Nmnat	DRSC14644	0.1	-0.7		
Gs2	DRSC20250	-0.2	-0.4		
Lrpprc2	DRSC18605	0	-0.2		
dao	DRSC01960	-0.1	-0.5		
CG13917	DRSC08386	-0.2	-0.2		
CG13155	DRSC06280	-0.2	-0.2		
Fancl	DRSC14550	-0.1	-0.2		
CG43345	DRSC03164	-0.3	-0.4		
CG34458	DRSC06925	-0.2	0.7		
CG12011	DRSC08219	-0.4	-0.6		
byn	DRSC11332	-0.1	-0.4		
CG11699	DRSC19419	-0.3	-0.6		
PsGEF	DRSC18596	-0.5	0.6		
meso18E	DRSC20351	1	-0.6		
CG17681	DRSC02632	-0.2	-0.4		
strat	DRSC03069	-0.1	-0.3		
spz3	DRSC02391	-0.4	-0.5		
spz3	DRSC03008	-0.4	-0.4		
bark	DRSC00635	-0.3	-0.1		
CG9471	DRSC16499	-0.4	-0.6		
CG15765	DRSC18071	0	0.7		
Exo70	DRSC10774	-0.4	-0.3		
raw	DRSC03599	0.9	0.2		
raw	DRSC03600	0.1	-0.1		
CG9016	DRSC03127	-0.4	-0.5		
COX7AL2	DRSC00099	0.9	-0.7		
Unc-115b + p24-2	DRSC16492	-0.3	-0.4		
ACXD	DRSC07843	0.1	1.3		

An excerpt from above, reduced to “z-score, replicate 2”.
Hexo2 [DRSC18671] = -0.2
Polr3B [DRSC07536] = 0.9
CG10845 [DRSC14272] = -0.7
Rpp25 [DRSC05002] = -0.2
D19B [DRSC11134] = -0.1
prtp [DRSC19804] = -0.5
Cyp4e2 [DRSC07371] = -0.6
CG3907 [DRSC04432] = -0.3
RabX6 [DRSC08223] = -0.1
Gr32a [DRSC02400] = -0.4
CG33465 [DRSC05587] = -0.2
